Taken from: PubChem BioAssay AID743121 (NCATS, 2013)
This is an unselected part of about 26,000 reagents tested. 167 of them (0.63%) count as active. 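Calls are per gene from RSA p-values that are not deposited; an individual active-marked siRNA can sensitise only weakly.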 The numbers tell different reagents against one gene apart. No sequences are given here.

Assay: 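Genes whose silencing strengthens cell killing by camptothecin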 (primary screen)
System: MDA-MB-231 cells, a human breast cancer line
Reagents: single siRNA against human genes, 20 nM siRNA (0.8 pmol per well)
Timing: 120 h (drug added 48 h after transfection, read 72 h later)
Conditions: camptothecin 20 nM (about EC30) for 72 h; vehicle 0.1% DMSO in parallel plates
Detection: 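Cell viability by ATP luminescence (CellTiter-Glo) as % of non-targeting siRNA wells, and the log2 ratio of viability without drug over viability with camptothecin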
Direction: log2 vehicle/camptothecin viability: higher = stronger sensitisation to camptothecin; viability with camptothecin and viability without drug: higher = more viable cells
Rule for the call: 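Each gene scored by redundant siRNA activity (RSA) over its individual siRNA ratios; a gene is called active at p < 0.001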

no.	gene	reagent no.	log2 vehicle/camptothecin viability	viability with camptothecin (% of control)	viability without drug (% of control)	call
1	KMT5C	1	-0.101	103	95.7	inactive
2	KMT5C	2	-0.693	65.8	40.7	inactive
3	KMT5C	3	0.242	26.5	31.3	inactive
4	KMT5C	4	0.0415	7.33	7.54	inactive
5	BECN1	1	-0.48	110	78.6	inactive
6	BECN1	2	-0.506	76.3	53.7	inactive
7	BECN1	3	-0.321	71.5	57.2	inactive
8	BECN1	4	-0.628	91.6	59.3	inactive
9	DSCAML1	1	-0.163	110	98.6	inactive
10	DSCAML1	2	-0.00528	74.5	74.3	inactive
11	DSCAML1	3	-0.208	30.5	26.4	inactive
12	DSCAML1	4	-0.316	71.9	57.8	inactive
13	PSMC3IP	1	0.785	14.3	24.6	inactive
14	PSMC3IP	2	-0.282	97.7	80.4	inactive
15	PSMC3IP	3	-0.191	93.2	81.6	inactive
16	PSMC3IP	4	0.28	71.9	87.2	inactive
17	ASB11	1	-0.357	80.6	62.9	inactive
18	ASB11	2	0.0432	77.5	79.9	inactive
19	ASB11	3	-0.0494	81.2	78.5	inactive
20	ASB11	4	-0.221	100	86	inactive
21	RSPH14	1	-0.439	64.1	47.3	inactive
22	RSPH14	2	-0.111	109	101	inactive
23	RSPH14	3	-0.241	66.1	56	inactive
24	RSPH14	4	-0.143	106	95.9	inactive
25	SIRT7	1	0.0363	98.6	101	inactive
26	SIRT7	2	-0.246	28.7	24.2	inactive
27	SIRT7	3	-0.113	67.9	62.8	inactive
28	FBXO45	1	-0.464	105	76.2	inactive
29	FBXO45	2	0.00917	107	108	inactive
30	FBXO45	3	0.108	81.9	88.2	inactive
31	ASPRV1	1	-0.166	32.1	28.6	inactive
32	ASPRV1	2	-0.579	18.8	12.6	inactive
33	ASPRV1	3	0.00169	76	76.1	inactive
34	ASPRV1	4	-0.138	99.4	90.3	inactive
35	ADAMTS1	1	-0.17	109	96.5	inactive
36	ADAMTS1	2	-0.276	91.8	75.8	inactive
37	ADAMTS1	3	-0.46	64.4	46.8	inactive
38	ADAMTS1	4	-0.468	80.4	58.1	inactive
39	SLC25A16	1	-0.388	30.1	23	inactive
40	SLC25A16	2	-0.489	60	42.7	inactive
41	SLC25A16	3	0.306	30.1	37.3	inactive
42	SLC25A16	4	-0.624	86.8	56.3	inactive
43	COL8A2	1	-0.45	63.2	46.3	inactive
44	COL8A2	2	-0.264	54.8	45.6	inactive
45	COL8A2	3	0.989	22	43.6	inactive
46	COL8A2	4	-0.173	107	95.1	inactive
